# Library screen at single concentrations

From ChEMBL document CHEMBL3988442, “University of Dundee, Small-Polar-MMV Screening Library” (2021).

Each number is a percent effect as filed.
The controls that fix the scale are not given in the record; negative values are as filed.
This is an unselected part of the compounds tested.
Two or more numbers in one place are separate tests of the same structure; such repeats can differ widely.

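Cell assay of Leishmania donovani living inside macrophages; the read-out is not stated. Compounds at 30 µM. Direction is inferred from retests: higher values go with stronger inhibition. About 69,000 compounds were tested under these conditions; 1.5% (about 1,000) showed 50% or more at least once.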

- CC(=O)N1Cc2ccccc2C[C@H]1C(=O)Nc1ccccn1 : 22.07%
- C=C(C)COc1cccc(CNC(CC)c2ccnn2C)c1 (stereo not shown) : 24.04%
- Cc1ncc(CN(C)CC(O)c2cccc(C(F)(F)F)c2)s1 (stereo not shown) : 9.012%
- CCc1nc(CNc2ccc(-c3nc(C4CC4)no3)cn2)no1 : -20.71%
- CC(C)COCC(NC(=O)c1cnccn1)c1ccco1 (stereo not shown) : -1.467%
- CCc1nc(CN2CCCC(NCCn3cncn3)C2)no1 (stereo not shown) : 10.33%
- CN(Cc1ccc(N2CCCCC2)cc1)Cc1noc(C(C)(C)C)n1 : 46.51%
- CC(C)N1C(=O)CC(NC(=O)c2cc(Cl)sc2Cl)C1=O (stereo not shown) : 8.109%
- COCCCS(=O)(=O)N1CCN(C(=O)CO)CC1 : 4.268%
- Cc1ccc(SCC(=O)NS(=O)(=O)c2ccc3c(c2)OCCO3)cc1 : 27.19%
- CCN(Cc1noc(C)n1)C(=O)C(c1cccc(C)c1)N(C)C (stereo not shown) : 33.28%
- O=C(O)c1cccn1-c1ccc2c(c1)OCCO2 : -20.08%
- O=C(O)C(F)(F)F.O=C(O)C(F)(F)F.[H][C@@]12C[C@@H](Oc3cccc(F)c3)CN1CCN(C(=O)c1ccc(C)nc1)C2 : 16.67%
- O=C(CN1CC(n2cccn2)C1)NCCCc1ccccc1 : 15.86%
- COc1cc(C)ccc1C(=O)N1C[C@@H](CN(C)CCO)[C@@H](CO)C1 : -6.975%
- N#Cc1ccccc1N1CCN(C(=O)NCCN2CCOCC2)CC1 : -6.472%
- CN1CCN(c2ccccc2NC(=O)NCCc2ccc(O)cc2)CC1 : 8.55%
- COCCn1c2c(ccc1=O)CCN(C(=O)NC1CC1)CC2 : -4.933%
- [H][C@@]12CN(C(=O)NCC)C[C@]1([H])OCC(=O)N2CC1CC1 : 19.23%
- CC(O)CN1CCC(CNCCOCC(F)(F)F)CC1 (stereo not shown) : 5.724%
- COc1nc(C)ccc1CNC(=O)NC(c1ncc(C)s1)C1CC1 (stereo not shown) : -17.25%
- COC(C)(C)C(=O)N1CCC(c2cc(CN(C)C)n(C)n2)CC1.Cl : 12.3%
- O=C(O)C(F)(F)F.[H][C@]12CCN(C(=O)c3cccs3)C[C@@]1([H])OCCN(C1CCOCC1)C2 : 25.91%
- Cn1ncnc1NS(=O)(=O)c1ccc(F)cc1Cl : 26.48%
- Cc1cc(NCc2cccc(C#N)c2)ccc1C(N)=O : 20.65%
- COc1cc(C)cc(C(C(=O)O)N(C)Cc2ccon2)c1OC (stereo not shown) : 38.15%
- CSc1nc2cc(C)n(CC(=O)Nc3nccs3)c2c(=O)n1CC(C)C : 10.84%
- Cn1cnc2c1CCN(CCCS(=O)(=O)c1ccccc1)C2 : -4.003%
- CCc1nc(CN(C)C2CCN(CCn3cccn3)C2)no1 (stereo not shown) : 32.28%
- COC(=O)N1CCCC(NC(=O)NCc2nc(C)cs2)C1 (stereo not shown) : 26.94%
- Cc1nc[nH]c1-c1nc2cc(S(=O)(=O)N3CCCC3)ccc2n1C : 10.67%
- NC(=O)CCn1cc(CNCCCc2ccncc2)c2ccccc21 : 15.32%
- CC(C)CCN1CCNC(=O)C1CC(=O)NCCc1cc(O)ncn1 (stereo not shown) : -10.31%
- COc1cc2nc(C)n(CC(=O)NCCO)c(=O)c2cc1OC : -11.88%
- Cc1c(C(=O)NC2CC(C)(C)NC(C)(C)C2)cnn1-c1ccc(F)cc1 : 12.23%
- CCn1nc(C)c2nnn(CC(=O)Nc3ccc(C)cc3)c(=O)c21 : 38.88%
- Cc1cc(C)c2cc(CNCCCN3CCOCC3)c(=O)[nH]c2c1 : -1.969%
- Cc1nc(CCNC(=O)NCc2ccc(N(C)C)nc2)cs1 : 41.11%
- Cn1cc(C2CCCN2CCC(=O)N2CCc3sccc3C2)cn1 (stereo not shown) : 9.519%
- Cc1cc(C)c2c(N3CCN(Cc4ncccc4C)CC3)ncnc2n1 : 36.08%
- CC(C)COCC(NC(=O)c1cccnc1)c1ccco1 (stereo not shown) : 15.54%
- COc1ccc(NC(=O)c2cc3c([nH]c2=O)CCCC3=O)c(OC)c1 : 3.794%
- CCOC(=O)c1cn(CC(O)c2ccccc2OC)nn1 (stereo not shown) : 16.17%
- [H][C@]12CN(Cc3cccc(C)c3)C(=O)[C@@]1([H])CN(S(=O)(=O)CC)C2 : 10.3%
- Cc1nn(C)cc1Cn1cc(Cl)c(N)n1 : 8.944%
- O=C(O)C(F)(F)F.O=C(O)C(F)(F)F.[H][C@@]12CCN(c3ccc(C)nn3)[C@@]1([H])CCN2Cc1ccsc1 : 12.28%
- Cc1nc2ccccc2n(Cc2nnnn2C2CC2)c1=O : 21.82%
- [H][C@@]12CCN(C(=O)C3CCOCC3)C[C@@]1([H])O[C@@H](c1nc(C)no1)C2 : -8.466%
- Cc1c(S(=O)(=O)NC2CC2)cc2c(C)cc(=O)n3c2c1CCC3 : -34.27%
- COCCCNC(=O)c1cc(-c2cnc(N(C)C)nc2)cn1CC1CC1.O=C(O)C(F)(F)F : 4.145%
- CC(C)[C@H](NC(=O)Cn1nc2c(cc1=O)CCCC2)C(=O)O : 3.81%
- O=C(O)C(F)(F)F.O=C(O)C(F)(F)F.c1csc(CN2Cc3[nH]nc(COCC4CC4)c3C2)c1 : 14.54% and 4.513%
- CCS(=O)(=O)NCC1OCCc2cn(CCOC)nc21 (stereo not shown) : 22.39%
- Cc1csc(C2CCCCN2C(=O)CCCn2cccn2)n1 (stereo not shown) : 4.894%
- CN(Cc1ccco1)C(=O)CN1CCCCC1Cn1cncn1 (stereo not shown) : 6.606%
- OC1(CN2CCN(c3cccc(C(F)(F)F)c3)CC2)CNCCOC1 (stereo not shown) : 51.12%
- COc1ccncc1NCc1ccsc1 : 7.258%
- O=C(O)C(F)(F)F.O=C(O)C(F)(F)F.O=C(c1ccccn1)N1Cc2nccn2CC(CN2CCOCC2)C1 (stereo not shown) : 17.84%
- Cc1nn(C)c(Cl)c1C1CCCN1C(=O)c1nccnc1N (stereo not shown) : 1.892%
- O=C(NCCOc1ccccc1)C1NCCc2[nH]cnc21 (stereo not shown) : -13.51%

Some entries from above, unchanged:

* COCCn1c2c(ccc1=O)CCN(C(=O)NC1CC1)CC2 : -4.933%
* O=C(O)c1cccn1-c1ccc2c(c1)OCCO2 : -20.08%
* CCS(=O)(=O)NCC1OCCc2cn(CCOC)nc21 (stereo not shown) : 22.39%
* [H][C@@]12CN(C(=O)NCC)C[C@]1([H])OCC(=O)N2CC1CC1 : 19.23%
* Cc1ncc(CN(C)CC(O)c2cccc(C(F)(F)F)c2)s1 (stereo not shown) : 9.012%